The target in assay [1] is LTBP1 C-terminal construct CT (residues 1002–1395) (UniProt Q14766). In words: AUC; ~0.5 mg/ml; 10 mM Tris, 150 mM NaCl, 2 mM CaCl2, pH 7.4; self-association; NT1 also after 12 h pre-incubation with ~10x molar excess of low molecular weight heparin; both purified.
The target is the same in assay [2]. In words: cross-linking; transglutaminase-2 (guinea pig liver) at 0.1:1, 2 hours at 30 °C, 10 mM Hepes, 150 mM NaCl pH 7.4, 1 mM CaCl2; each construct alone; western blot with anti-histidine antibody; both purified.
Assay [3] shares this target. Briefly: SEC-MALS; Superdex 200 or Superose 6; 0.5 ml at ~0.5 mg/ml; 10 mM Tris, 150 mM NaCl, 2 mM CaCl2, pH 7.4; self-association; NT2 monomer also stored overnight at 4 °C in 2 mM calcium and the dimer fraction rerun; both purified.
The target in assay [4] is LTBP1 N-terminal construct NT2 (residues 21–630) (UniProt Q14766). In words: AUC; NT2 with 2 mM EDTA in place of calcium; both purified.
For assay [5] the target is unchanged. In words: SEC-MALS; NT2 monomer stored overnight at 4 °C in 2 mM EGTA; Superose 6 column; both purified.
The target in assay [6] is LTBP1 EGF region (residues 526–1014) (UniProt Q14766). In words: AUC; ~0.5 mg/ml; 10 mM Tris, 150 mM NaCl, 2 mM CaCl2, pH 7.4; self-association; NT1 also after 12 h pre-incubation with ~10x molar excess of low molecular weight heparin; both purified.
The target is the same in assay [7]. Briefly: cross-linking; transglutaminase-2 (guinea pig liver) at 0.1:1, 2 hours at 30 °C, 10 mM Hepes, 150 mM NaCl pH 7.4, 1 mM CaCl2; each construct alone; western blot with anti-histidine antibody; both purified.
For assay [8] the target is unchanged. Briefly: SEC-MALS; Superdex 200 or Superose 6; 0.5 ml at ~0.5 mg/ml; 10 mM Tris, 150 mM NaCl, 2 mM CaCl2, pH 7.4; self-association; NT2 monomer also stored overnight at 4 °C in 2 mM calcium and the dimer fraction rerun; both purified.

Results are given in words; binding and its absence hold for the method and conditions named.

As for “LTBP1 C-terminal construct CT (residues 1002–1395) (from UniProt Q14766-2 1002-1395) (domain or fragment)”, the binding entry is “no binding (tested: ~0.5 mg ml^-1)” in assay [1], “no binding” in assay [2] and “no binding (tested: ~0.5 mg ml^-1)” in assay [3].

B1: LTBP1 N-terminal construct NT2 (residues 21–630) (domain or fragment, UniProt Q14766-2 21-630, looked up)
chain: NHTGRIKVVFTPSICKVTCTKGSCQNSCEKGNTTTLISENGHAADTLTATNFRVVICHLPCMNGGQCSSRDKCQCPPNFTGKLCQIPVHGASVPKLYQHSQQPGKALGTHVIHSTHTLPLTVTSQQGVKVKFPPNIVNIHVKHPPEASVQIHQVSRIDGPTGQKTKEAQPGQSQVSYQGLPVQKTQTIHSTYSHQQVIPHVYPVAAKTQLGRCFQETIGSQCGKALPGLSKQEDCCGTVGTSWGFNKCQKCPKKPSYHGYNQMMECLPGYKRVNNTFCQDINECQLQGVCPNGECLNTMGSYRCTCKIGFGPDPTFSSCVPDPPVISEEKGPCYRLVSSGRQCMHPLSVHLTKQLCCCSVGKAWGPHCEKCPLPGTAAFKEICPGGMGYTVSGVHRRRPIHHHVGKGPVFVKPKNTQPVAKSTHPPPLPAKEEPVEALTFSREHGPGVAEPEVATAPPEKEIPSLDQEKTKLEPGQPQLSPGISTIHLHPQFPVVIEKTSPPVPVEVAPEASTSSASQVIAPTQVTEINECTVNPDICGAGHCINLPVRYTCICYEGYRFSEQQRKCVDIDECTQVQHLCSQGRCENTEGSFLCICPAGFMASEEGTNCI
notes: LTBP1S residues 21-630; also called NT2 region
Turning to B1, the binding result in assay [4] is “no binding (condition: with 2 mM EDTA)”; in assay [5], “no binding (condition: with 2 mM EGTA)”.

B2: LTBP1 EGF region (residues 526–1014) (domain or fragment, UniProt Q14766-2 526-1014)
chain: EVAPEASTSSASQVIAPTQVTEINECTVNPDICGAGHCINLPVRYTCICYEGYRFSEQQRKCVDIDECTQVQHLCSQGRCENTEGSFLCICPAGFMASEEGTNCIDVDECLRPDVCGEGHCVNTVGAFRCEYCDSGYRMTQRGRCEDIDECLNPSTCPDEQCVNSPGSYQCVPCTEGFRGWNGQCLDVDECLEPNVCANGDCSNLEGSYMCSCHKGYTRTPDHKHCRDIDECQQGNLCVNGQCKNTEGSFRCTCGQGYQLSAAKDQCEDIDECQHRHLCAHGQCRNTEGSFQCVCDQGYRASGLGDHCEDINECLEDKSVCQRGDCINTAGSYDCTCPDGFQLDDNKTCQDINECEHPGLCGPQGECLNTEGSFHCVCQQGFSISADGRTCEDIDECVNNTVCDSHGFCDNTAGSFRCLCYQGFQAPQDGQGCVDVNECELLSGVCGEAFCENVEGSFLCVCADENQEYSPMTGQCRSRTSTDLDVDVD
Turning to B2, the binding entry was “no binding (tested: ~0.5 mg ml^-1)” in assay [6], “no binding” in assay [7] and “no binding (tested: ~0.5 mg ml^-1)” in assay [8].

The values above are taken from PMC5039643, “Independent multimerization of Latent TGFβ Binding Protein-1 stabilized by cross-linking and enhanced by heparan sulfate” (Scientific Reports, 2016).
